## Library screen at single concentrations

Amino acid sequences for entries named in this document (tags omitted). Residues count along the entry.
UniProt Q8IDJ8, 1-583: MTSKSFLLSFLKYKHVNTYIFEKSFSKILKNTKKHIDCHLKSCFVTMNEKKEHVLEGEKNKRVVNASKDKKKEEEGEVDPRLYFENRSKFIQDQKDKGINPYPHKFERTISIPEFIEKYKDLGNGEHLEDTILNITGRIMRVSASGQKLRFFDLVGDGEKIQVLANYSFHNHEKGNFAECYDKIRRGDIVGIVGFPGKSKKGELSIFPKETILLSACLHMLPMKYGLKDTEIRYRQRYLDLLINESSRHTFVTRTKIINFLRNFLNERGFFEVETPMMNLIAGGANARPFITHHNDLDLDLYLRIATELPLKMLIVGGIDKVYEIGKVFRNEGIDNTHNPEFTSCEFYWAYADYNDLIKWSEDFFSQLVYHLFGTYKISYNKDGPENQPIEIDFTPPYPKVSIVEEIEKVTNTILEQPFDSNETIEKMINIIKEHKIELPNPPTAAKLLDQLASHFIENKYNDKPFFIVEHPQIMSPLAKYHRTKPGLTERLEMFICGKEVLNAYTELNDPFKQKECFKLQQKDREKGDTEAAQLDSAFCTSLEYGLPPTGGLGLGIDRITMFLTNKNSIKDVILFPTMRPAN
UniProt A4I591, 1-473: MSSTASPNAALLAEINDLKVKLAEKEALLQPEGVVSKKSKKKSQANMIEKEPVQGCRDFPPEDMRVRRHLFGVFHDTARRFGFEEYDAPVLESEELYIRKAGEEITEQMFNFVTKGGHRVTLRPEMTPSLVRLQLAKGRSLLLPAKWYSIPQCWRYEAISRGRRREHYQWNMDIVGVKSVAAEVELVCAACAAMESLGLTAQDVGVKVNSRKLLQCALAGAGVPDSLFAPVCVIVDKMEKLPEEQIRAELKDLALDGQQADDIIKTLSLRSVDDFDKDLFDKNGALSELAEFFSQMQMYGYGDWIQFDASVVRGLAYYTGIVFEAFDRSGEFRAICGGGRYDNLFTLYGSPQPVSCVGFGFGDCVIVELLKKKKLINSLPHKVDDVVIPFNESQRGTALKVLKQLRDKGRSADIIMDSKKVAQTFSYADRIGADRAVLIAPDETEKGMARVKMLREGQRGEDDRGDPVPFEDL

T. brucei: 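Whole-parasite assay of Trypanosoma brucei over 72 hours; the read-out is not stated. Compounds at 30 µM. Higher reads as stronger inhibition (inferred: compounds with an IC50 in retests scored well above the rest). Values scatter widely below zero; nearly all retest evidence comes from the higher of the two concentrations used. About 64,000 compounds were tested under these conditions; 1.5% (about 940) showed 50% or more at least once.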
PfKRS1: 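Enzyme assay of the cytosolic lysyl-tRNA synthetase in 384-well plates, read by luminescence. Target: Lysine-tRNA ligase, Plasmodium falciparum 3D7 (UniProt Q8IDJ8). Concentration: 30 µM. Higher reads as stronger inhibition, judged from the few compounds that gave an IC50. About 69,000 compounds were tested under these conditions; 0.071% (about 49) showed 50% or more at least once.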
LiHisRS: 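Histidine-tRNA ligase, Leishmania infantum (UniProt A4I591). Enzyme assay of histidyl-tRNA synthetase; the read-out is not stated. Compounds at 30 µM. The record gives no direction; compounds that gave an IC50 in retests scored well above the rest, so higher reads as stronger inhibition. The assay is labelled LdHisRS but filed under L. infantum. Of about 69,000 compounds tested this way, about 410 (0.6%) reached 50% or more in at least one test.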
Toxoplasma: 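Assay of Toxoplasma gondii numbers, read through their beta-galactosidase reporter with a colour substrate. Concentration: 10 µM. Higher reads as fewer parasites (inferred from which compounds were picked for retests). About 67,000 compounds were tested under these conditions; 0.38% (about 260) showed 50% or more at least once.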

Results are given as percent effect.
The controls that fix the scale are not given in the record; negative values are as filed.
This is an unselected part of the compounds tested.
A dash means the value is not listed here; it may have been measured.

compound | T. brucei | PfKRS1 | LiHisRS | Toxoplasma
CC(C)c1n[nH]c(C(=O)Nc2ccccn2)c1Br | 50.04 | -0.5379 | 0 | -9.478
CC(C)COC(=O)N1CCCN(Cc2nnc(C(C)(C)C)o2)CC1 | -34.84 | 1.527 | 17.81 | 1.517
CCOC(=O)N1CCN(Cc2ccc(OCc3nccn3C)cc2)CC1 | 17.67 | -4.069 | 19.18 | 4.764
CCn1ccc(NC(=O)CCc2c(C)noc2C)n1 | -18.98 | -3.877 | 9.524 | -3.229
O=C(Nc1cccnc1-n1cc(Cl)cn1)C1CC1 | -40.12 | 3.758 | 21.05 | 0.8672
CC(=O)N1CCC(c2cc(C(F)(F)F)nc3nccn23)CC1 | 17.08 | 4.176 | 15.94 | 4.165
CC(NC(=O)NCc1cccnc1N(C)C)c1cccs1 (stereo not drawn) | -40.77 | 4.693 | 15.66 | -5.009
COCCN1C[C@H]2CC[C@@H]1CN(Cc1cc(=O)c3cc(C)ccc3[nH]1)C2 | - | 6.466 | 40.62 | -
CCc1ncc(C(=O)NCCNc2ncnc3sccc23)s1 | -61.92 | -2.346 | 17.58 | -3.344
CN1CCc2c(C#N)c(NCc3cccnc3)n3cnnc3c2C1.Cl | -8.696 | - | - | -14.52
O=S(=O)(C1CC1)N1CC[C@H]2OCC[C@@]2(COc2ncccc2F)C1 | - | 4.157 | 17.11 | -
Cc1nccn1-c1ccc(CNS(=O)(=O)N2CCCCC2C)cn1 (stereo not drawn) | -3.225 | 3.017 | 14.58 | 3.428
COCc1nc2cc(NCc3ccc(CO)o3)ccc2o1 | -93.69 | 5.639 | 86.61 | 0.5895
[H][C@@]12C[C@H](C(=O)N(C)C)[C@@]([H])(CN(S(=O)(=O)CC)C1)O2 | 9.915 | - | - | 2.496
CCOC(=O)CNC(=O)NCc1cc(C)n(-c2ccc(OC)cc2)c1C | 2.024 | 7.944 | 31.58 | -19.99
CCN(CCNC(=O)C1CCN(C(C)=O)CC1)c1ccccc1C | -4.489 | 4.47 | 2.632 | -2.727
OCCOCc1n[nH]c2c1CN(Cc1ccccn1)C2 | - | 4.299 | 18 | -
O=C(Nc1nc2c(s1)CN(C(=O)NCc1cccs1)CC2)C1CC1 | -18.49 | 2.184 | 15.05 | 2.193
CCNC(=O)CNC(=O)c1ccn(S(=O)(=O)c2ccc(C)cc2)c1 | -17.26 | 5.34 | 21.92 | 11.58
O=C(c1cccnc1)N1C[C@@H]2CC[C@H](C1)N(Cc1ncc[nH]1)C2 | - | -0.1275 | 21.15 | -
Cc1cc(C(=O)N2CCc3c(CN(C)C(C)C)n[nH]c3C2)[nH]n1 | -15.52 | 0.8605 | 11.7 | -5
Cc1nc[nH]c1CN1C[C@@H]2OCCN(c3ncccn3)[C@@H]2C1 | - | -2.415 | 11.76 | -
CN(CCc1cn[nH]c1)C(=O)CCc1ccc(Cl)cc1 | - | 1.613 | 9.859 | -
O=C(c1ccc(O)cc1)N1CCN(C(=O)c2ccc3c(c2)COC3)CC1 | -26.68 | 8.142 | -23.6 | -
Cc1nc(CN2CCC3(CC2)CC(=O)N(C)c2ccccc23)cs1 | - | 7.188 | 17.09 | -
NC(=O)CC1CCCN(c2cncc(SCc3ccccc3)n2)C1 (stereo not drawn) | 6.312 | -2.441 | 15.29 | 14.52
CC(=O)N(Cc1noc(C)n1)C1CCN(Cc2c(C)noc2C)C1 (stereo not drawn) | - | 0.8441 | 0 | 15.13
O=c1ccc2c(n1CC1CCOCC1)CCN(Cc1ccoc1)CC2 | - | 1.595 | 28.72 | -
CCN(CC(=O)N(C)C)C(=O)c1nc(C)n(-c2ccccc2Cl)n1 | -4.359 | 7.372 | 16.81 | 10.01
O=c1cc(N2CCc3ccccc3C2)cnn1CCC1CCOC1 (stereo not drawn) | 4.687 | 8.773 | 19.83 | -12.17
COc1cc2[nH]c(C(=O)O)cc2c(OC)c1C | -14.96 | 0.5661 | 2.174 | -
O=S(=O)(C1CC1)N1CCCC2(COCCN(c3nncs3)C2)C1 (stereo not drawn) | -13.08 | 0.3194 | 5.263 | 12.29
COCCN1CCO[C@@H]2CN(Cc3ccc(C)s3)C[C@@H]2C1 | - | 2.129 | 13.79 | -
COc1cccn(Cc2nnc(-c3cccc(F)c3)o2)c1=O | -11.02 | 5.487 | 91.8 | 24.19
CC(C)CCN1CCN(C(=O)c2cnccn2)CC1 | 1.872 | -1.078 | 20.41 | -1.475
CCN(c1ccsc1C(=O)N1CCC(C)CC1)S(=O)(=O)c1ccccc1 | -22.99 | -0.07624 | 21.95 | 10.31
CC(C)c1nc(CNC(=O)c2ccc(C(C)N3CCCCC3)o2)cs1 (stereo not drawn) | -61.42 | 1.947 | 2.74 | 28.52
O=C(c1cccc2[nH]ncc12)N1CCCC1c1noc(C2CC2)n1 (stereo not drawn) | -37.8 | 4.823 | -14.61 | -
O=C1N(CC2CC2)CCCC1(O)CN1CCc2[nH]ncc2C1 (stereo not drawn) | -52.5 | 0.3551 | 1.408 | 10.07
COc1ccc(OCC(=O)NC(C)c2ccc(F)cc2)c(C(=O)O)c1 (stereo not drawn) | 3.536 | 5.546 | 22.64 | 4.838
Cc1ccc(C)c(OCCNC(=O)C2CCOC2)c1 (stereo not drawn) | 6.539 | 2.654 | 23.08 | -4.029
Cl.c1ccc(CNc2cc(C3CCCNC3)ccn2)nc1 (stereo not drawn) | -13.01 | - | - | 16.11
O=C(O)C(F)(F)F.O=C1CCCN1Cc1nnn2c1CN(c1cccnc1)CCC2 | -14.81 | - | - | 5.842
Cc1nccn1C1CCCN(C(=O)c2ccc(-n3cccn3)nc2)C1 (stereo not drawn) | -16.21 | -0.03377 | 15.18 | -12.59
Cc1noc(C)c1S(=O)(=O)NC(=O)COc1ccc2c(c1)CCC2 | -9.322 | 1.292 | 10.19 | -3.286
COc1ccc2c(c1)CN(C)C(=O)CCN2CC(O)C(C)(C)C (stereo not drawn) | -19.14 | 7.705 | 12.24 | -20.92
O=C(NCC1CCOC1)c1csc(-c2cccc(Cl)c2)n1 (stereo not drawn) | -26.64 | -2.191 | -8.219 | 2.753
Cc1c(C)c(C)c2[nH]c(-c3cn(C4CCNCC4)nn3)nc2c1C | 91.25 | 2.73 | 29.58 | 14.62
NC(=O)[C@@H]1Cc2ccccc2CN1S(=O)(=O)N1CCCCCC1 | -17.67 | -2.622 | 16.67 | 3.745
CC(=O)c1cnc(NCCCN2CCOCC2)nc1C | -37.57 | -0.5769 | 10.59 | 31.15
Fc1ccc(OCCCN2CCOC(Cn3cncn3)C2)cc1 (stereo not drawn) | 6.601 | 0.2178 | 8.108 | 8.605
Cc1[nH]ccc1C(=O)N1CCCC(c2ccc(C(=O)O)cc2)C1 (stereo not drawn) | -55.36 | -3.983 | 32.53 | -13.94
Cc1c(C2SCC(=O)Nc3c2cnn3C(C)(C)C)cnn1C (stereo not drawn) | -35.9 | 0.1373 | 1.099 | 7.849

The last 5 entries again:

* NC(=O)[C@@H]1Cc2ccccc2CN1S(=O)(=O)N1CCCCCC1 : T. brucei: -17.67%; PfKRS1: -2.622%; LiHisRS: 16.67%; Toxoplasma: 3.745%
* CC(=O)c1cnc(NCCCN2CCOCC2)nc1C : T. brucei: -37.57%; PfKRS1: -0.5769%; LiHisRS: 10.59%; Toxoplasma: 31.15%
* Fc1ccc(OCCCN2CCOC(Cn3cncn3)C2)cc1 (stereo not drawn) : T. brucei: 6.601%; PfKRS1: 0.2178%; LiHisRS: 8.108%; Toxoplasma: 8.605%
* Cc1[nH]ccc1C(=O)N1CCCC(c2ccc(C(=O)O)cc2)C1 (stereo not drawn) : T. brucei: -55.36%; PfKRS1: -3.983%; LiHisRS: 32.53%; Toxoplasma: -13.94%
* Cc1c(C2SCC(=O)Nc3c2cnn3C(C)(C)C)cnn1C (stereo not drawn) : T. brucei: -35.9%; PfKRS1: 0.1373%; LiHisRS: 1.099%; Toxoplasma: 7.849%

Data taken from ChEMBL document CHEMBL3988442, “University of Dundee, Small-Polar-MMV Screening Library” (2021).